Measurements: article doi:10.1101/2025.01.13.632879
These are yes or no findings as the source states them, for the method shown.

Target: Escherichia coli LolA (wild type) (Escherichia coli) (UniProt P61316)
Test: SEC

- binding: no binding (tested: 10 mg/mL loaded)
B1: Escherichia coli LolA (wild type) (protein, UniProt P61316 22-203)
chain: DAASDLKSRLDKVSSFHASFTQKVTDGSGAAVQEGQGDLWVKRPNLFNWHMTQPDESILVSDGKTLWFYNPFVEQATATWLKDATGNTPFMLIARNQSSDWQQYNIKQNGDDFVLTPKASNGNLKQFTINVGRDGTIHQFSAVEQDDQRSSYQLKSQQNGAVDAAKFTFTPPQGVTVDDQRK
